# Measurements from the supplement of paper PMC11006884.
# The targets with a hit were mostly taken out for another list; the other results follow. Single values of this set are uncertain. The entries are a selection whose mix differs from that of the whole data set.
# Compound: COC(=O)/C=C/c1ccccc1 [methyl cinnamate]
# Experiment: log2 ratio of iodoacetamide-alkyne labeling of the cysteine site, DMSO over compound (competition); higher = stronger covalent engagement of the cysteine by the compound, active = 1 or more
# Conditions: 500 µM; treatment time 1 h; system: HEK293T cell lysate
# Method in brief: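 Electrophile (500 µM) or vehicle was added to HEK293T lysate (2 mg/mL) for 1 h at ambient temperature before iodoacetamide alkyne labelling (1 h) and click coupling to sCIP-TMT reagents. After pooling, overnight trypsin digestion at 37 °C, streptavidin enrichment and acid elution, peptides were measured by Orbitrap Eclipse LC-MS/MS with FAIMS and quantified in FragPipe. Each cysteine's log2 competition ratio compares mean control-channel with mean compound-channel reporter intensity, control over compound. Data came from duplicate channels across three replicates, excluding cysteines quantified in only one replicate.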
row,Target,log2 ratio of iodoacetamide-alkyne labeling
1,CCT7 C511 (UniProt Q99832),inactive: -0.0822
2,DDX50 C633 (UniProt Q9BQ39),inactive: 0.161
3,UniProt Q9BQ75_C55,inactive: 0.326
4,CRBN C287 (UniProt Q96SW2),inactive: 0.342
5,ATAD5 C1529 (UniProt Q96QE3),inactive: 0.116
6,VRK1 C250 (UniProt Q99986),inactive: -0.321
7,LYSMD1 C32 (UniProt Q96S90),inactive: 0.158
8,ZFR C922 (UniProt Q96KR1),inactive: 0.0846
9,SIN3A C486 (UniProt Q96ST3),inactive: 0.358
10,CLCC1 C550 (UniProt Q96S66),inactive: 0.189
11,SMG1 C3401 (UniProt Q96Q15),inactive: -0.254
12,CNN2 C175 (UniProt Q99439),inactive: 0.466
13,ZFR C899 (UniProt Q96KR1),inactive: 0.282
14,RSF1 C404 (UniProt Q96T23),inactive: 0.28
15,SCYL1 C210 (UniProt Q96KG9),inactive: -0.186

# Looked up one by one from the entries so far, 2 records:
row,Target,log2 ratio of iodoacetamide-alkyne labeling
3,UniProt Q9BQ75_C55,inactive: 0.326
1,CCT7 C511 (UniProt Q99832),inactive: -0.0822
